Results: publication PMC12084551
No constants are given. Whether binding was seen depends on the method and setting.

Key:
[1] = biological target: GAS2ΔC (residues 1–276) (mouse) (UniProt P11862); assay: SEC; Superdex 75 HR 10/300; 30 mM Tris-HCl pH 8.0, 300 mM KCl, 100 μM ZnCl2, 0.1% β-ME; molecular weight from a calibration with BSA, carbonic anhydrase and cytochrome c; both purified
[2] = biological target: GAS2-GARΔC (residues 198–276) (mouse) (UniProt P11862); assay: as above

## GAS2ΔC (residues 1–276) (from UniProt P11862 1-276) (domain or fragment)
[1]
  binding: no binding

## GAS2-GARΔC (residues 198–276) (from UniProt P11862 198-276) (domain or fragment)
[2]
  binding: no binding
